At least one structure is not confirmed: it was looked up by name or label, or the drawing left a doubt.
System: BaF3 PIM1 cells
Test: In vitro cell proliferation potency assay, BaF3 line transfected with PIM-1 (Cell Titer Glo)
Assay type: cell-based, murine
Conditions: incubated overnight, read-out: Prolif. BaF3 PIM-1 (IC50)
Experimental: In Vitro Cell Proliferation Potency Assays
BaF3 parental line was obtained from the DSMZ repository. […] Mouse IL-3 was purchased from R&D Systems. G418 was purchased from Clontech. Media for BaF3 parental line contained RPMI, 10% FBS, 2 mM L-Glutamine, 2 ng/mL mIL-3. Media for BaF3 PIM1 & 2 lines contained RPMI, 10% FBS, 2 mM L-Glutamine, […]. Media for MM1.S (multiple myeloma cells) line contained RPMI, 10% FBS, 2 mM L-Glutamine.
BaF3, a murine interleukin-3 dependent pro-B cell line, parental cells, BaF3 PIM1 cells, BaF3 PIM-2 cells, and MM1.S (multiple myeloma) cells were seeded at 2 k/well, 5 k/well, 5 k/well, and 10 k/well respectively, in a 384-well plate, at 45 μL/well. Test compound was added at 5 μL/well. BaF3 cells (parental and transfected) were incubated overnight, while MM1.S cells were incubated for 72 hours at 37° C., 5% CO2. Cell Titer Glo Reagent (Promega) was added at 50 μL/well, the plates were incubated for 30 minutes, and their luminescence read on an HT Analyst. IC50/EC50 values for the test compound were calculated.

c1ccc(-c2n[nH]c3cnc(-c4cccnc4)cc23)cc1 [Example 116, 3-phenyl-5-(pyridin-3-yl)-1H-pyrazolo[3,4-c]pyridine]
IC50: 21.3 µM

From patent publication US9260425B2 (Genetech, Inc., priority 2011, dated 2016)
